Reference: article PMC7287101
Results are given in words; binding and its absence hold for the method and conditions named. Binding seen in cells or lysates may run through a third protein. Some results given as binding are weak or reduced against the parent protein; the word gives no strength.

Protein sequences, listed by entry. Tags and fused reporters are not part of them. Lines headed by an entry give the natural chain unless they say otherwise; changes in a name come on top. Chains listed by the source or under a name are the forms on record and can include a tag or linker.
UniProt Q9W420: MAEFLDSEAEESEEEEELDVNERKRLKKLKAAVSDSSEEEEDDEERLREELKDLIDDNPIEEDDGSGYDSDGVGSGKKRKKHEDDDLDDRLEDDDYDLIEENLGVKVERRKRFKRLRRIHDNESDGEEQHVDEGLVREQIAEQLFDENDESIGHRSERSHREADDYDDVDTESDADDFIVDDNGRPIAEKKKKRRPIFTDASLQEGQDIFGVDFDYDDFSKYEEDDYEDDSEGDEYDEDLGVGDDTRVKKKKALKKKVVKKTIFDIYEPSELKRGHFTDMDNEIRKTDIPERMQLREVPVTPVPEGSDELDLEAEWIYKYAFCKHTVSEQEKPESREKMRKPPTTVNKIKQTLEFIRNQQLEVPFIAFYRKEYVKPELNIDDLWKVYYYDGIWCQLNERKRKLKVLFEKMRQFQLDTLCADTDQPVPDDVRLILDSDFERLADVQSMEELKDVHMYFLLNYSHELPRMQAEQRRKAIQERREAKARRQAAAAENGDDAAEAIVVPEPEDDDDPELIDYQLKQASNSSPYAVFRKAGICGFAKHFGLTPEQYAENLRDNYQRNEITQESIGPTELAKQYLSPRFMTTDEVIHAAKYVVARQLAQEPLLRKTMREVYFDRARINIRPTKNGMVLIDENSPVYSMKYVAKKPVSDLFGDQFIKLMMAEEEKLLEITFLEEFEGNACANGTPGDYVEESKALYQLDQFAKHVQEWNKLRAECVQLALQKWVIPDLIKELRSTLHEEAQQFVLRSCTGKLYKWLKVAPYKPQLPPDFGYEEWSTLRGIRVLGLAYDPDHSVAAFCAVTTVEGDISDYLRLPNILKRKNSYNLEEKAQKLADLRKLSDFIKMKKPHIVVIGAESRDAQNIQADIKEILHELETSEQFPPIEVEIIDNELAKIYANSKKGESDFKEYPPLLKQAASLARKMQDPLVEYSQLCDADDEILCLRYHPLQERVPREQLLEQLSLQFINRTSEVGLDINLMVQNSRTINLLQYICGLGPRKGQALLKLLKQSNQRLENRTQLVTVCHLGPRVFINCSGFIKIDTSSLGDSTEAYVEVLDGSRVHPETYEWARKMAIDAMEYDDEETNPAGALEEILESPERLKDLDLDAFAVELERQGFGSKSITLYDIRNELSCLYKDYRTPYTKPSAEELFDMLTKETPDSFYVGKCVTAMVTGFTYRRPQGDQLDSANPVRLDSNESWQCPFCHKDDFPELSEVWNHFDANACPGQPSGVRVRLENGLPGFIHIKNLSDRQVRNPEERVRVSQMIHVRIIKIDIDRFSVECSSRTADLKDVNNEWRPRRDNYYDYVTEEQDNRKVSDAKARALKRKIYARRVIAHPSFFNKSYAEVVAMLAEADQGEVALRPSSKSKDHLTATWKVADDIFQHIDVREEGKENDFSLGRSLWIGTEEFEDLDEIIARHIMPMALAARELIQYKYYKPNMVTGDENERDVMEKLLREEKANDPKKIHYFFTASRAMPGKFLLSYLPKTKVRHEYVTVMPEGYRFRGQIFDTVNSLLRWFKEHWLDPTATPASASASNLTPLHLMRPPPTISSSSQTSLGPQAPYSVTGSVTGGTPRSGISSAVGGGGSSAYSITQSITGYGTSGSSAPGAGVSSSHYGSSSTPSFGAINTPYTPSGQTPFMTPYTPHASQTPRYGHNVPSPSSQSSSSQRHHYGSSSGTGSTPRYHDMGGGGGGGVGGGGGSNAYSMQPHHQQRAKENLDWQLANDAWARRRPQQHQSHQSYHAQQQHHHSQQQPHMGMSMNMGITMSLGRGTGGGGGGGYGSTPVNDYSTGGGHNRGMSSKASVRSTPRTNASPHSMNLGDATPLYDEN
UniProt Q9V6Q2: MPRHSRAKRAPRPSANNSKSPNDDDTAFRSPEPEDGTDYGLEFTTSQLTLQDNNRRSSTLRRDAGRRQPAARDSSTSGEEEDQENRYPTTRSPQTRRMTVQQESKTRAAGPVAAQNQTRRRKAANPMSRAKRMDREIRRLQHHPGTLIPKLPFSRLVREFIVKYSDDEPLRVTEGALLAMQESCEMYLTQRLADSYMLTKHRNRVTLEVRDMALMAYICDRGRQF
dCENP-A^FLAG (S20/75/77A) (Q9V6Q2, form named): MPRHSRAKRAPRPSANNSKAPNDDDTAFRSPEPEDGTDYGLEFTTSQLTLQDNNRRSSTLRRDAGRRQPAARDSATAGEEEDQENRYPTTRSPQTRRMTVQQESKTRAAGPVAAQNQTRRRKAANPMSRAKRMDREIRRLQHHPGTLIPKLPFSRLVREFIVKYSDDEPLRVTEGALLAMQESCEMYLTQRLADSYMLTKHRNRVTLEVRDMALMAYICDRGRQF
dCENP-A^FLAG (S20/75/77D) (Q9V6Q2, form named): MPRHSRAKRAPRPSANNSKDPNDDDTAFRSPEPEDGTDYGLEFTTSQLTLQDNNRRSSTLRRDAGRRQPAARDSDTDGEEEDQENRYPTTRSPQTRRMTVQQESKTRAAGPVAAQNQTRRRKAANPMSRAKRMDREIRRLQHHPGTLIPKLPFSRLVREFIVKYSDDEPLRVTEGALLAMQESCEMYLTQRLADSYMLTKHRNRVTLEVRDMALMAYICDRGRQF

What was measured:
[1] = biological target: endogenous Spt6 (Drosophila (endogenous in S2 cells)) (UniProt Q9W420); experiment: co-IP; anti-Spt6 antibody (25C6) on Protein A-Sepharose; Benzonase-treated S2 nuclear extract; 4 °C overnight; washes with 150 mM NaCl; blots α FLAG, α Spt6, α H3
[2] = biological target: endogenous Spt6 (Drosophila (endogenous in S2 cells)) (UniProt Q9W420); experiment: co-IP; anti-Spt6 antibody (25C6) on Protein A-Sepharose; Benzonase-treated S2 nuclear extract; 4 °C overnight; high salt washes with 750 mM NaCl; blots α FLAG, α Spt6, α H3

binding [1] | binding [2] | Substance
binds weakly |  | dCENP-A^FLAG S77D (from UniProt Q9V6Q2 1-225)
binds | binds | full length dCENP-A^FLAG (from UniProt Q9V6Q2 1-225)

The remaining lines, values behind:

Substance | binding [1] | binding [2]
dCENP-A^FLAG S77A (from UniProt Q9V6Q2 1-225) | binds | 
dCENP-A^FLAG (S20/75/77A) (from UniProt Q9V6Q2 1-225) | binds | binds
dCENP-A^FLAG (S20/75/77D) (from UniProt Q9V6Q2 1-225) | binds weakly | 
